# Test results as given in paper PMC7930028.
# Columns and labels:
# Assay in all cases: split reporter; split-luciferase complementation; nLUC and cLUC fusions co-expressed in N. benthamiana leaves by agroinfiltration (1:1); LUC image taken with a CCD after adding luciferin
# [1] = target: T1, Cluc-AtCLV1 (Arabidopsis thaliana) (UniProt Q9SYQ8)
# T1 sequence: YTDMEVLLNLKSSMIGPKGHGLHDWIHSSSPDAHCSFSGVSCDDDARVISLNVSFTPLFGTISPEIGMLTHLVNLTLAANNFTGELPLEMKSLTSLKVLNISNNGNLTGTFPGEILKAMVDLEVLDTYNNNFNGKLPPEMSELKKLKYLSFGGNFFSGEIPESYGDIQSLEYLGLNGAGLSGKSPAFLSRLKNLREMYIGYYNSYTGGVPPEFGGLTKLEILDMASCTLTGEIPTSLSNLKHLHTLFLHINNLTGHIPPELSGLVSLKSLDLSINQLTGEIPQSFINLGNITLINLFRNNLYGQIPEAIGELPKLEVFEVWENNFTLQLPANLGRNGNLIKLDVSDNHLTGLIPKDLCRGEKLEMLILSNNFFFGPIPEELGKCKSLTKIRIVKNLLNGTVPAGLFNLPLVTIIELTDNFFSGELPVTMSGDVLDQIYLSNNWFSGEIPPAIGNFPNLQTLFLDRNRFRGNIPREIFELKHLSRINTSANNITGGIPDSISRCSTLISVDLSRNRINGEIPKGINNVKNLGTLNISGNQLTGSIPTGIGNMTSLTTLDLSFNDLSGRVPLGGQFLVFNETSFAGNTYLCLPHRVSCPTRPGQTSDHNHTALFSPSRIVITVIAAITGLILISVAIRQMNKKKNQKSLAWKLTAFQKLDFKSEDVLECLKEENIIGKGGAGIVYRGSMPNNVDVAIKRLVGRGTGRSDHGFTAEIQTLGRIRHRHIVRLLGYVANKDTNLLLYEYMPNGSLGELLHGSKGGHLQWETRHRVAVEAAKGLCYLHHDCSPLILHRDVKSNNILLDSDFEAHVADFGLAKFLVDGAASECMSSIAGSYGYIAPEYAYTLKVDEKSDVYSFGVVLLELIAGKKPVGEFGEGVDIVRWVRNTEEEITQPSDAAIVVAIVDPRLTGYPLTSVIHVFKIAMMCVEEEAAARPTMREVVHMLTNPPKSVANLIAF
# [2] = target: T2, Cluc-AtCLV2 (Arabidopsis thaliana) (UniProt O80809)
# T2 sequence: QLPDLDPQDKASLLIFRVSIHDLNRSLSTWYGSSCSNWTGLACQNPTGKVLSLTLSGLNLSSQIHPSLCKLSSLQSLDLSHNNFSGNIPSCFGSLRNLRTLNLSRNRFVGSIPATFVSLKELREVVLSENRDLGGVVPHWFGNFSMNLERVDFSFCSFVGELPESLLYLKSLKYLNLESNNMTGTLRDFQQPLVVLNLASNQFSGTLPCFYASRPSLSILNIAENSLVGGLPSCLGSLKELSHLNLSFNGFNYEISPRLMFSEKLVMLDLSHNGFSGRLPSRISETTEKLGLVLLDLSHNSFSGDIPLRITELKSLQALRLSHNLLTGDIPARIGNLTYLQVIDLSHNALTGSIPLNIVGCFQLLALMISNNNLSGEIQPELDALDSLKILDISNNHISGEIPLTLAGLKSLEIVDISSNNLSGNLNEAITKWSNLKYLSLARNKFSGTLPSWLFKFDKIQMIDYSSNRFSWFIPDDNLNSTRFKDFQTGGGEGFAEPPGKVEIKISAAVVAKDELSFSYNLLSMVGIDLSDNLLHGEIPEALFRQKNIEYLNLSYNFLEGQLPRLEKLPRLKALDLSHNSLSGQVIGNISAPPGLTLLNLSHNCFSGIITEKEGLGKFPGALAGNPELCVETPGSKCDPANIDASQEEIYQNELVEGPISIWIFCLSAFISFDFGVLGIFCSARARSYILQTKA
# [3] = target: T3, Cluc-AtCRN (Arabidopsis thaliana) (UniProt Q9LYU7)
# T3 sequence: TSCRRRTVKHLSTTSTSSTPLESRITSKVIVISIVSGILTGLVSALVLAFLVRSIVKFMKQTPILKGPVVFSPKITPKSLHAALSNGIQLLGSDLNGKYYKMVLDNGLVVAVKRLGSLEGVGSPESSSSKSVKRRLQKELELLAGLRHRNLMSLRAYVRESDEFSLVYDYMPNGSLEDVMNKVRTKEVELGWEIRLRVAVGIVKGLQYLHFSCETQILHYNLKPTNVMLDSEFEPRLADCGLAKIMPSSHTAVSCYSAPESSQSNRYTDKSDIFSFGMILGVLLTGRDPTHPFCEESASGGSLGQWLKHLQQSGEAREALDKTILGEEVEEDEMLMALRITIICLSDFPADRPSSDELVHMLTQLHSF
substance,measurement,setting,value
GhCLE5-Nluc (Gossypium hirsutum (upland cotton)),binding,[1],binds
same,binding,[2],no binding
same,binding,[3],no binding

# No constants are given. Whether binding was seen depends on the method and setting. In cells and extracts the contact can be indirect. For part of these data: A result given as binding can be weak or reduced; the word gives no strength. Where a sequence is shown, tags or fusion partners need not be part of it.
